Results deposited as PubChem BioAssay AID1224830 (NIAID, 2016)
Purpose: 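Host factors that control LPS-induced TNF expression in human macrophages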 (primary screen). System: human THP-1 monocytic leukaemia cells, TNF dual-luciferase reporter clone, PMA-differentiated to macrophage-like cells. Knock-down reagent: siRNA pool against human genes, 50 nM. Timing: LPS for 4 h, given about 3 days after siRNA transfection. Treatment: bacterial LPS (TLR4 ligand), 10 ng/ml. Measured: 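Ratio of firefly to renilla light, scaled to the plate median and expressed as a robust z-score per replicate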. Direction: TNF reporter robust z-score: higher = stronger TNF reporter response to LPS. Active means: 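a well is active when its z-score exceeds 2.8 or falls below -1.5; control wells carry no call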.
The deposit covers about 18,000 reagents; shown is a random part of them. Of all reagents, about 2,900 (16%) were called active. 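Calls are made per well; low scores hint the gene aids the LPS response, high scores that it dampens it.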 Unmarked entries are inactive. Repeated entries: four replicate wells of each siRNA pool.

target gene | TNF reporter robust z-score
FMNL2 | -1.29
FMNL2 | -1.79 (active)
FMNL2 | -1.36
FMNL2 | -1.11
POTEH | -1.05
POTEH | -0.32
POTEH | -0.85
POTEH | 0.61
CCDC117 | -0.7
CCDC117 | 0.12
CCDC117 | -0.39
CCDC117 | -0.52
GLE1 | 0.87
GLE1 | -0.11
GLE1 | 0.05
GLE1 | -1.52 (active)
HOMER2 | 0.74
HOMER2 | 0.91
HOMER2 | 0.05
HOMER2 | -0.24
TAF1C | -1
TAF1C | 0.42
TAF1C | 3.75 (active)
TAF1C | 2.29
SKI | -0.37
SKI | -0.69
SKI | -0.75
SKI | -0.59
ANKZF1 | 1.22
ANKZF1 | 1.09
ANKZF1 | 1.02
ANKZF1 | -0.55
CALD1 | 1.04
CALD1 | -0.37
CALD1 | -0.78
CALD1 | 0.35
ANKRD2 | -0.62
ANKRD2 | 0.05
ANKRD2 | -1
ANKRD2 | -0.91
FAM131C | -0.96
FAM131C | 2.45
FAM131C | -0.31
FAM131C | 1.6
LAMA1 | -0.57
LAMA1 | -0.17
LAMA1 | -0.02
LAMA1 | -0.13
LRPAP1 | 0.26
LRPAP1 | 0.42
LRPAP1 | 1.31
LRPAP1 | -0.83
NEDD4 | 0.16
NEDD4 | -0.09
NEDD4 | -0.22
NEDD4 | -0.19
ROPN1 | 0.43
ROPN1 | 0.2
ROPN1 | 0.27
ROPN1 | -0.46
BMPR1B | -1.29
BMPR1B | -1.06
BMPR1B | -1.12
BMPR1B | -0.9
CDC42BPB | -1.22
CDC42BPB | -1.2
CDC42BPB | 0.14
CDC42BPB | 0.2
LGALS9 | -0.77
LGALS9 | 0.16
LGALS9 | 0.32
LGALS9 | -0.23

Targets listed so far whose target name begins with G or g:
target gene | TNF reporter robust z-score
GLE1 | 0.87
GLE1 | -0.11
GLE1 | 0.05
GLE1 | -1.52 (active)

The listing continues.
target gene | TNF reporter robust z-score
LZTS2 | -2.11 (active)
LZTS2 | -2.04 (active)
LZTS2 | -2.13 (active)
LZTS2 | -2.15 (active)
GABPB2 | 0.52
GABPB2 | 0.57
GABPB2 | 0.7
GABPB2 | 0.07
ZNF582 | -0.33
ZNF582 | 0.13
ZNF582 | 0.44
ZNF582 | -0.31
CIRBP | -0.25
CIRBP | -0.13
CIRBP | -0.29
CIRBP | 0
ASZ1 | -0.62
ASZ1 | -0.34
ASZ1 | 0.12
ASZ1 | 0.06
SHD | 0.3
SHD | 1.17
SHD | 0.21
SHD | 0.42
SMC1A | 2.12
SMC1A | 1.73
SMC1A | 0.62
SMC1A | 1.09
SCAND3 | 1.16
SCAND3 | 1.07
SCAND3 | 0.72
SCAND3 | 2.87 (active)
MYOZ3 | 0.64
MYOZ3 | 1.03
MYOZ3 | 0.9
MYOZ3 | 0.81
RBM44 | 2.77
RBM44 | -0.84
RBM44 | -0.78
RBM44 | -0.5
